Counter-ions that a name gives are not always drawn. At least one structure is not confirmed: it was looked up by name or label, or the drawing left a doubt.
Assays:
Assay in all cases: Confirmatory spot test with enzyme substrates
Assay type in all cases: cell-based
Details in all cases: 35° C., up to 24 hours
[1] = system: Enterobacter aerogenes (EPA 202)
Experimental: (§1) One hundred microliter volumes of a bacterial suspension were placed in three wells of a sterile porcelain spot test plate or other suitable plate with wells. The bacterial suspension was obtained in one of the following ways:
(§2) 1. A loopful of bacterial growth from a slant or an isolated colony from an agar plate was emulsified in a small amount of the liquid MI broth medium without substrates or other non-selective broths.
(§3) 2. Aliquots of 100 μl of a bacterial culture grown over-night at 35° C. in a non-selective broth or the liquid medium without substrates were used.
(§4) Sixty microliters of a freshly-prepared, filter-sterilized 16 mg/ml IBDG solution was added to one well of bacterial suspension, and 300 μl of a freshly-prepared, filter-sterilized 1 mg/ml MUGal solution was added to a second well. The third well, containing only bacterial suspension (negative control), was used as a comparator to distinguish positive and negative wells. Additional wells were inoculated with uninoculated medium, IBDG, and MUGal as controls. The plates were covered with sterile foil and incubated at 35° C. for up to 24 hours. […] This test could also be performed by adding all of the test liquids and culture or sample to a piece of filter paper or to an absorbent pad and observing the reactions.

[2] = system: Klebsiella pneumoniae (EPA 207)
Experimental: as §1, §2, §3, §4

[3] = system: Pseudomonas aeruginosa (ATCC 27853)

## O=C(O)[C@H]1O[C@@H](Oc2c[nH]c3ccccc23)[C@H](O)[C@@H](O)[C@@H]1O [IBDG, Indoxyl-Beta-D-glucuronide, sodium salt or cyclohexylammonium salt]
[1]
  Reactions in Wells Containing: IBDG (blue color): −
[2]
  Reactions in Wells Containing: IBDG (blue color): −
[3]
  Reactions in Wells Containing: IBDG (blue color): −

## Cc1cc(=O)oc2cc(O[C@@H]3O[C@H](CO)[C@H](O)[C@H](O)[C@H]3O)ccc12 [MUGal, 4-Methylumbelliferyl-Beta-D-galactopyranoside]
[3]; UV 366 nm
  Reactions in Wells Containing: MUGal (fluorescence): −

Source: US6670145B2, “Method for detection of total coliforms and E. coli” (The United States of America as represented by the …, priority 1991, dated 2003)
